The list shows a part of the results.
compound: NC(=O)Nc1cc(-c2cccc(F)c2)sc1C(=O)N[C@H]1CCCNC1; assay: log2 fold change, soluble protein after heating vs DMSO (PISA); higher = thermal stabilisation; K562 lysate, 10 uM; active = over 0.2 and 3.5 SD of the protein, either way, in both replicates (recomputed)
Method in brief: (§1)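 The values are log-two fold changes in thermal stability compared with solvent controls and come from duplicates. They were obtained by TMTpro 16plex LC-MS/MS, with channel sums equalised, on the supernatant after 21,000xg for 90 min. That supernatant came from crude K562 extract at 1 mg/mL protein treated with 10 μM compound for 30 min, heated for 3 min across 48°C-58°C, pooled and brought to 0.5% NP-40 at 4°C.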

Chains of the proteins cited; added tags and fusions are not shown. Lines headed by an entry give the natural chain unless they say otherwise; changes in a name come on top.
UniProt Q13362, whole entry, looked up: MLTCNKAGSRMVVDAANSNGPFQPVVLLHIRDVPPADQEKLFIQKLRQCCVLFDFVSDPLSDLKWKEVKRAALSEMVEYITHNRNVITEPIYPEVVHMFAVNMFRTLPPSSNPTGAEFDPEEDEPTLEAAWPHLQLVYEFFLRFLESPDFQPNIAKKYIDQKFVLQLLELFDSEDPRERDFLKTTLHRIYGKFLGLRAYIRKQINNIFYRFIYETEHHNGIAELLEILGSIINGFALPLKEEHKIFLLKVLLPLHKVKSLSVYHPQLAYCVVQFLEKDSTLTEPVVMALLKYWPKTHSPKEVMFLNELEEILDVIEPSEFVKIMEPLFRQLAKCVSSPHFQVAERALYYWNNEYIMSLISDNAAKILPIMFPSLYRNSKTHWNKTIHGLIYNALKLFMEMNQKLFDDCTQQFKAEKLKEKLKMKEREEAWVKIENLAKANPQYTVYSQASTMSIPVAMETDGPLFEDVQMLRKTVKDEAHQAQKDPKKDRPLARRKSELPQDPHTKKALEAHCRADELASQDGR
UniProt Q2NL68: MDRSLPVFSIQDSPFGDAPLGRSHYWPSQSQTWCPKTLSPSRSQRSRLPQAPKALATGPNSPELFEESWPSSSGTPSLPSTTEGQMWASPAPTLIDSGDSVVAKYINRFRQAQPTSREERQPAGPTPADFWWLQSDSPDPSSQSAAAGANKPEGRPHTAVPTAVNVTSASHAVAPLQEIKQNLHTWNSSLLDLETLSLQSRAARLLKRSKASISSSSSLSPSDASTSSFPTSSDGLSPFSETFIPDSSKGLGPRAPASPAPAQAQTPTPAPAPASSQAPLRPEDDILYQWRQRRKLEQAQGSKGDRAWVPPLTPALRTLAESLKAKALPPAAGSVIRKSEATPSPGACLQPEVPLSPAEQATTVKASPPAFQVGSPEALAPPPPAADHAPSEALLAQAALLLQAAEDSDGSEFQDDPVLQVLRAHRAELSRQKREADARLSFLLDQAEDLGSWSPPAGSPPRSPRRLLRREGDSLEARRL
UniProt Q9Y255: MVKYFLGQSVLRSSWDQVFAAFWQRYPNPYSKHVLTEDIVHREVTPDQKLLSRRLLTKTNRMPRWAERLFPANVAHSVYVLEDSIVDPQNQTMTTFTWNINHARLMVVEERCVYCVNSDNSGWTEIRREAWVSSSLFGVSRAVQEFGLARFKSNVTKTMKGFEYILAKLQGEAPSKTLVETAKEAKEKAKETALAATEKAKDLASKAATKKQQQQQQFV
UniProt P13727: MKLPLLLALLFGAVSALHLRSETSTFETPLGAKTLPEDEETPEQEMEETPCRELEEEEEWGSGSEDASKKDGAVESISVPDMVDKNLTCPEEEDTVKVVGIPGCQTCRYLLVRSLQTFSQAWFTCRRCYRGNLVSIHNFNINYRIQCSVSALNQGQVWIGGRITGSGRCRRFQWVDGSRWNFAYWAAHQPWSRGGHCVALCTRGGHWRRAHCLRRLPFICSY
UniProt Q9BZL4: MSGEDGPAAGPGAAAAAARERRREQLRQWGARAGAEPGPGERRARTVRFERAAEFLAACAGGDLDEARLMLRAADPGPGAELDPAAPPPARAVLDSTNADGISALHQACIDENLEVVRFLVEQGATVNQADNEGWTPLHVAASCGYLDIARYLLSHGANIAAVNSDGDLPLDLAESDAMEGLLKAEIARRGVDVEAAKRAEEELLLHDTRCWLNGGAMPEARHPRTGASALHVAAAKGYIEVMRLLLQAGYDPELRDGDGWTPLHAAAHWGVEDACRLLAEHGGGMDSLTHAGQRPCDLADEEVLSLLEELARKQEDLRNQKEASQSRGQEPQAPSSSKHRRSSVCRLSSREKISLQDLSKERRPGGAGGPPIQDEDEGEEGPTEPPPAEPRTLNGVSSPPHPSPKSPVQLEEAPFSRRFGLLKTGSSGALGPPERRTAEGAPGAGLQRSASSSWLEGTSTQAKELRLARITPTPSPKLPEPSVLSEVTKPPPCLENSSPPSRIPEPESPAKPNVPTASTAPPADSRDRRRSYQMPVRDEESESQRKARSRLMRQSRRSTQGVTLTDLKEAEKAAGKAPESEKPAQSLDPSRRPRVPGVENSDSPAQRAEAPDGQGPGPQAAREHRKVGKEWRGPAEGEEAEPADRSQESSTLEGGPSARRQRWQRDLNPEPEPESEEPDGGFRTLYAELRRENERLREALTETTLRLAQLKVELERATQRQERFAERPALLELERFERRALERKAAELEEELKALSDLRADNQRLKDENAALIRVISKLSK
UniProt Q9Y570: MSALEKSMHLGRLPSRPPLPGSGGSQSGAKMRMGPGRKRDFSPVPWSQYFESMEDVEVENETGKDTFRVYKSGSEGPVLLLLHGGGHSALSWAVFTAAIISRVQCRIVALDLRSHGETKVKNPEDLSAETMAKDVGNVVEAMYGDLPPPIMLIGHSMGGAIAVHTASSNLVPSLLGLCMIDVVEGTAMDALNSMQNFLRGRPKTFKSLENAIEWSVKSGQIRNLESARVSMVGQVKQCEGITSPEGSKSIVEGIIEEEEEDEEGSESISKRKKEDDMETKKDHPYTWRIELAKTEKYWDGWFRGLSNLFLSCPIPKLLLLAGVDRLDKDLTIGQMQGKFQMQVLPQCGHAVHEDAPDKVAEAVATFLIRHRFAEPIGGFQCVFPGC
UniProt Q9NQV6: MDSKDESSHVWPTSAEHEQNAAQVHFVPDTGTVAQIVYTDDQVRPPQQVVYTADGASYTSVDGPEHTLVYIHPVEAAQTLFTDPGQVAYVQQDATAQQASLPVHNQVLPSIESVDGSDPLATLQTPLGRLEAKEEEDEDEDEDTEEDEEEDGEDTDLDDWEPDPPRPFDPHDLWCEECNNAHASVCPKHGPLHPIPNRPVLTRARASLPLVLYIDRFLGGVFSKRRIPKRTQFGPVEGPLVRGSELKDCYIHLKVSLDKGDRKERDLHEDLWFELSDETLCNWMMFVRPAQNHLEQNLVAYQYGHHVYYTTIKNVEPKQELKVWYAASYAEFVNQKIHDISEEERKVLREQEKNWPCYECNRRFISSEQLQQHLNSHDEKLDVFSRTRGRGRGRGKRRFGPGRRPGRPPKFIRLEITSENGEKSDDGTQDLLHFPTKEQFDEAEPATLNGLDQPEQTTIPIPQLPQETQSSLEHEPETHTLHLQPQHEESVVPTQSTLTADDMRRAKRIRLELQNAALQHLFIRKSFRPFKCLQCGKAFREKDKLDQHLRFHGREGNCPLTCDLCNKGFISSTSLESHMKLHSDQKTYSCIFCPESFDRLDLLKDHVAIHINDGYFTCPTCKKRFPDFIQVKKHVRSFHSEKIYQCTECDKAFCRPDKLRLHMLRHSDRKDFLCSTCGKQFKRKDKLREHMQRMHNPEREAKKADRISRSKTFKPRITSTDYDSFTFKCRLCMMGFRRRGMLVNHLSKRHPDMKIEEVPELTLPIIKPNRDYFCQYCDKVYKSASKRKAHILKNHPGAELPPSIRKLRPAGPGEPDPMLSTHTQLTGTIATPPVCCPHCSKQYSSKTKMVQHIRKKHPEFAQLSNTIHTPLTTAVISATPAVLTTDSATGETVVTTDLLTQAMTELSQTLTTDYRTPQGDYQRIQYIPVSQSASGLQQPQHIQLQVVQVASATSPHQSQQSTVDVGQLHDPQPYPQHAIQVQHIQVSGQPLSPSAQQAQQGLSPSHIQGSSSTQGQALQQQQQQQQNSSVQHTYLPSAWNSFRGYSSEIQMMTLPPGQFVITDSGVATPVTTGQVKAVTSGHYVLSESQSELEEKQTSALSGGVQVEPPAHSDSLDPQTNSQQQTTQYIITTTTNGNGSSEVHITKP
UniProt O75688: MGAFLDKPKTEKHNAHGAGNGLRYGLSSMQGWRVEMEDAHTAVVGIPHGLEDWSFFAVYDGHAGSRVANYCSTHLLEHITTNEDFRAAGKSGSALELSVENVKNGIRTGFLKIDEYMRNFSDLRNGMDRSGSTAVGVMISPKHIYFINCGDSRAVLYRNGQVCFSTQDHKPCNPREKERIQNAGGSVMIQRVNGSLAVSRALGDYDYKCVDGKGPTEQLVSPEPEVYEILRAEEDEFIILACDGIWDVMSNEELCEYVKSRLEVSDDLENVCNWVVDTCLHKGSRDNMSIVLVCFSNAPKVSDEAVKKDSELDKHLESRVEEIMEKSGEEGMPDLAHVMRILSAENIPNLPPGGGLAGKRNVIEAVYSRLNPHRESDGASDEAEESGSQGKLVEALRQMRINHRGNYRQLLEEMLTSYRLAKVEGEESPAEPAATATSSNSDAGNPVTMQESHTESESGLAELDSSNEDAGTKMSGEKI
UniProt Q5JR12: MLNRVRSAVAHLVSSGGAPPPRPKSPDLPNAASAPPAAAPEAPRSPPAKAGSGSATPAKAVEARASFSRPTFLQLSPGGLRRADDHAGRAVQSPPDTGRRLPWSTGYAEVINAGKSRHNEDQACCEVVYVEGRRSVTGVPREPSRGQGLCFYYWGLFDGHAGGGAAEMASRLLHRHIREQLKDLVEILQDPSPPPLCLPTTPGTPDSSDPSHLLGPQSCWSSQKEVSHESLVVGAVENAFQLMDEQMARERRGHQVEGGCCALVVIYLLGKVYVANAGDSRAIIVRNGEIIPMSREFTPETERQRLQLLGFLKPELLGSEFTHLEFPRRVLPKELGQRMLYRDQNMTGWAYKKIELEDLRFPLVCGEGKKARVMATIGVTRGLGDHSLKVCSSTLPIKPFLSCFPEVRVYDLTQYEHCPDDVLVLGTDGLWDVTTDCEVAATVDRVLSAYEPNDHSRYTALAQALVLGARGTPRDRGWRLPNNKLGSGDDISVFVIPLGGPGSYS
UniProt Q969Q6: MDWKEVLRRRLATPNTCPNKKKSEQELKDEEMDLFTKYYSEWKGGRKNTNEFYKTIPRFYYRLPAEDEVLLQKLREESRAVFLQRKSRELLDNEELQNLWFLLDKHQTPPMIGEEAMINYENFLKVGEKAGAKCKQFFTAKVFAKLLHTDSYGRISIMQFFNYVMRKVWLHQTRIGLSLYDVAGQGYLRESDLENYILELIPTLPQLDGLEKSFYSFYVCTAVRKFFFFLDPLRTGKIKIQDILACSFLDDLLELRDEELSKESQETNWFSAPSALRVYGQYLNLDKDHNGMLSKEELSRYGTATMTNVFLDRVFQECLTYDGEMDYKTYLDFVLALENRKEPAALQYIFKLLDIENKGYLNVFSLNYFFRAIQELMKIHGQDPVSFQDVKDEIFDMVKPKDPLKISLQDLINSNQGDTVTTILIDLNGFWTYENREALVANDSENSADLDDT
UniProt P55345: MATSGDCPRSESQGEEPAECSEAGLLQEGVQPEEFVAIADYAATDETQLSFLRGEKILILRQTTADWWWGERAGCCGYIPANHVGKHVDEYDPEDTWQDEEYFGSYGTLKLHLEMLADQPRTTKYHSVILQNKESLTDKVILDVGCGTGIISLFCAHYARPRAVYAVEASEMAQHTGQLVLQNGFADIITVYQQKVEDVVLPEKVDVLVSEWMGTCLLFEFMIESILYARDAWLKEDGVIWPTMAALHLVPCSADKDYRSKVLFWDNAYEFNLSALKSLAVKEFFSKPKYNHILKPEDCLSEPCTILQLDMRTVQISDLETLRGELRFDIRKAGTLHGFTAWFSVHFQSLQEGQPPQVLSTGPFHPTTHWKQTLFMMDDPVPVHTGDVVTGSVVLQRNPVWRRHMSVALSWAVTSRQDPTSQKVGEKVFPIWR
UniProt Q5H9R7: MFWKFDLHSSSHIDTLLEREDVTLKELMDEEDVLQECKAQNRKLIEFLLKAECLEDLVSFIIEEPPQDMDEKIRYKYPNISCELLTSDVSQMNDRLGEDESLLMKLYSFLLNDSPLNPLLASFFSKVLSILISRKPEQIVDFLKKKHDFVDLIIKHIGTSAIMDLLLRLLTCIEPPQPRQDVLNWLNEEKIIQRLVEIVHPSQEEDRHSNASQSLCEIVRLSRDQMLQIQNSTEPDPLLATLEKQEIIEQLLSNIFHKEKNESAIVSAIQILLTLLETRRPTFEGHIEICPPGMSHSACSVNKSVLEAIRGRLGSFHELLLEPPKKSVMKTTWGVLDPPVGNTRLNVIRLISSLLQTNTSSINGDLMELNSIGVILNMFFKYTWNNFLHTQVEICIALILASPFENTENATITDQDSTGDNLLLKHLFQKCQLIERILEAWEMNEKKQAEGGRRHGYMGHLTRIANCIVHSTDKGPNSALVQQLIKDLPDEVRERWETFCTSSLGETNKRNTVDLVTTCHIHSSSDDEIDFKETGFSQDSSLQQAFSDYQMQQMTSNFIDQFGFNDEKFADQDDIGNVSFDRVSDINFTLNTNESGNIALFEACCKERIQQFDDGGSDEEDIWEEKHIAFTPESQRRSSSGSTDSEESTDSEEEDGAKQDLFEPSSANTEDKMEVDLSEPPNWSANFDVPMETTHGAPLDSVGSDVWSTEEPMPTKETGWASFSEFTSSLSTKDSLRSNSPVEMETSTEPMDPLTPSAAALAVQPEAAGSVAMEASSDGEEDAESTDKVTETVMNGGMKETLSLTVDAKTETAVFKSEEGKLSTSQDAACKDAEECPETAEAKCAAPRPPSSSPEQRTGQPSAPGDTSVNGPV

log2 fold change, inactive:
PRPF40B (UniProt Q6NWY9) 0.014
PPP2R5C isoform 2 (UniProt Q13362) -0.284
PROSER3 (UniProt Q2NL68) 0.068
PRELID1 (UniProt Q9Y255) 0.037
PRG2 (UniProt P13727) 0.057
PPP1R12C isoform 3 (UniProt Q9BZL4) 0.08
PRIMPOL (UniProt Q96LW4) 0
PPL (UniProt O60437) -0.088
PROSER3, A0A2R8Y8D9 0.084

compound: NC(=O)c1cnc(N[C@@H]2CCCC[C@@H]2N)nc1Nc1cccc(-n2nccn2)c1; assay: as above
Method in brief: as §1

log2 fold change, inactive:
PPP1R14A, A0A0B4J2A3 0.064
PPME1 (UniProt Q9Y570) 0.048
PRDM10 isoform 6 (UniProt Q9NQV6) 0.118
PPM1B isoform 2 (UniProt O75688) 0.078
PPM1J (UniProt Q5JR12) 0.144
PPP1R7 isoform 2 (UniProt Q15435) 0.109
PRG2 (UniProt P13727) 0.038
PPP1R16A (UniProt Q96I34) -0.204
PPP2R3C (UniProt Q969Q6) 0.038
PRDM2 (UniProt Q13029) -0.001
PPP1R7 (UniProt C9JD73) -0.17
PPIP5K2 (UniProt H0Y9S9) 0.142
PREP (UniProt H0Y5Y0) -0.087
PRPF40A isoform 3 (UniProt O75400) -0.105
PRMT2 (UniProt P55345) 0.068
PROSER1 (UniProt Q86XN7) 0.05

compound: NC1(c2ccc(-c3nc4ccn5c(=O)[nH]nc5c4cc3-c3ccccc3)cc2)CCC1; assay: as above
Method in brief: as §1

log2 fold change, inactive:
PPP1R14A, A0A0B4J2A3 -0.347
PPP2R5C isoform 2 (UniProt Q13362) -0.051
PPP6R3 isoform 2 (UniProt Q5H9R7) 0.425
PPME1 (UniProt Q9Y570) 0.027
PRDM10 isoform 6 (UniProt Q9NQV6) -0.038
PROSER3 (UniProt Q2NL68) 0.06
PPP1R16A (UniProt Q96I34) -0.115
PPP2R3C (UniProt Q969Q6) 0.062
PRDM2 (UniProt Q13029) -0.08
PRIMPOL (UniProt Q96LW4) -0.126
PPIP5K2 (UniProt H0Y9S9) 0.052
PRPF40A isoform 3 (UniProt O75400) 0.029
PROSER1 (UniProt Q86XN7) 0.175
PPP1R3E (UniProt Q9H7J1) -0.028
